From PubChem BioAssay AID463205 (Broad Institute, 2010) come the findings set out here.

In all, about 2,400 compounds went through this assay and about 20 (0.8%) were called active.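 Rule for the calls: active = AC50 no more than ten times the highest tested concentration, or full inhibition at every dose giving a flat fit (cut at about 30 µM in these data); inconclusive = flat fit with activity between 30% and 70%, or poor-quality invalid fit; inactive = AC50 more than ten times the top tested dose.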 Some of the results follow. Where only a bound is given, the exact number is not on record here.

The assay is described as follows: luciferase-based ADP detection interference – biochemical, luminescence, cell-free, homogeneous, artefact control for GSK-3a inhibitor project, dose response (AID 463205).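 Note: kinase-free counter-screen against the ADP-Glo detection reagents only; potency is for inhibitors that reduce the luminescence signal.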 Particulars: Cell-free ADP-Glo detection reagents, 5 uM ADP. (In ADP-Glo the light output rises with the ADP produced.)
`O=c1[nH]c(O)c(C=NC2CCN(Cc3ccccc3)CC2)c(=O)[nH]1`: the AC50 (as a rule, the concentration at which the activity in the assay is half-maximal) was inactive: > 30 µM.

Take `ClCCN1CCN(c2ccnc3cc(Cl)ccc23)CC1`: the AC50 is inactive: > 30 µM.

Regarding `O=c1[nH]c(=O)n(Cc2ccco2)c(O)c1/C=N/N1CCCCC1`, the AC50 was inactive: > 30 µM.

On to `O=[N+]([O-])c1ccc(NCCCN2CCOCC2)nc1`, for which the AC50 was inactive: > 30 µM.

As for `COc1ccc(-n2c(O)c(C=NCCCn3ccnc3)c(=O)[nH]c2=O)cc1`, the AC50 was inactive: > 30 µM.

As for `CCN1CCN(Cc2cc(OC)c(OC)cc2[N+](=O)[O-])CC1`, the AC50 was inactive: > 30 µM.

Consider `Cc1nc2cc(F)ccc2n1C1CCN(Cc2nnnn2CCc2ccccc2)CC1`, for which the AC50 was inactive: > 30 µM.

Take `O=C1/C(=C/c2cccc([N+](=O)[O-])c2)N2CCC1CC2`: the AC50 was inactive: > 30 µM.

`COc1cc2c(cc1OC)-c1c3c(cc4c1[C@@H](C2)N(C)CC4)OCO3`: the AC50 is inactive: > 30 µM.

Regarding `C=CCn1c(O)c(C=NC2CCN(Cc3ccccc3)CC2)c(=O)[nH]c1=O`, the AC50 was inactive: > 30 µM.

Turning to `CN1/C(=C\C=C2C(=O)NC(=O)NC2=O)C(C)(C)c2ccccc21`, the AC50 was inactive: > 30 µM.

Take `Cc1cccc(NC(=O)CSc2nnc([C@@H](N)Cc3c[nH]c4ccccc34)o2)c1C`: the AC50 is inactive: > 30 µM.

As for `CCOC(=O)N1CCC(NC(=O)CCc2nc(C3=CCN(C)CC3)no2)CC1`, the AC50 was inactive: > 30 µM.

With `CN1CCc2nc3sc(C#N)c(N)c3c(-c3cccs3)c2C1`, the AC50 is inactive: > 30 µM.

Take `CCOc1ccccc1-n1c(O)c(C=NCCCn2ccnc2)c(=O)[nH]c1=O`: the AC50 was inactive: > 30 µM.

As to `O=c1[nH]c(=S)n(C2CCCCC2)c(O)c1/C=N/N1CCOCC1`, the AC50 was inactive: > 30 µM.

As for `O=c1[nH]c(=O)n(C2CCCCCC2)c(O)c1C=NC1CCN(Cc2ccccc2)CC1`, the AC50 was inactive: > 30 µM.

Take `C=CCn1c(O)c(/C(C)=N/N2CCCCCC2)c(=O)[nH]c1=O`: the AC50 was inactive: > 30 µM.

As for `CCN1C(=O)C(=C/C=C/c2ccco2)C(=O)N(CC)C1=S`, the AC50 was inactive: > 30 µM.

With `CN1CCC2(CC1)C(C#N)=C(N)NC(S)=C2C#N`, the AC50 is inactive: > 30 µM.

`O=[N+]([O-])c1ccc(NCCCN2CCOCC2)c2ncccc12`: the AC50 was inactive: > 30 µM.

For `Cc1ccc2c(c1N)C(=O)c1ccccc1C2=O`, the AC50 is inactive: > 30 µM.

For the molecule `O=c1[nH]c(=O)n(CCc2ccccc2)c(O)c1C=NCCCn1ccnc1`, the AC50 was inactive: > 30 µM.

For `COc1cc(O)cc2c1C(=O)OC(C)CCCC(=O)CCC/C=C\2` (centres undefined), the AC50 was inactive: > 30 µM.

For `NC(=O)CSc1nnc([C@@H](N)Cc2c[nH]c3ccccc23)o1`, the AC50 is inactive: > 30 µM.

Take `CN(C)C(=O)Oc1ccc([N+](=O)[O-])cc1`: the AC50 was inactive: > 30 µM.

Regarding `C[C@H]1CCCC(=O)CCCCCc2cc(O)cc(O)c2C(=O)O1`, the AC50 is inactive: > 30 µM.

As for `CCC(=NCCCn1ccnc1)c1c(O)n(Cc2ccccc2)c(=O)[nH]c1=O`, the AC50 is inactive: > 30 µM.

Consider `CN(C(=O)Oc1ccc([N+](=O)[O-])cc1)c1ccccc1`, for which the AC50 is inactive: > 30 µM.

As for `C[C@H]1CCC[C@@H](O)CCC/C=C/c2cc(O)cc(O)c2C(=O)O1`, the AC50 was inactive: > 30 µM.

With `CCC(=NCc1cccnc1)c1c(O)n(C2CCCCC2)c(=O)[nH]c1=O`, the AC50 was inactive: > 30 µM.

For the molecule `CCn1nc(-c2ccccc2)nc2c(=O)n(C)c(=O)nc1-2`, the AC50 was inactive: > 30 µM.

In the case of `CC(=NCCCn1ccnc1)c1c(O)n(C2CCCCC2)c(=O)[nH]c1=O`, the AC50 is inactive: > 30 µM.

As to `CCOc1cc(-c2nc3c(C)cccn3c2NCC2CCCO2)ccc1O` (centres undefined), the AC50 is inactive: > 30 µM.

`Cc1ccc2c(c1)C(c1ccccc1)=NCC(=O)N2`: the AC50 is inactive: > 30 µM.

For the molecule `CCSc1nnc([C@@H](N)Cc2c[nH]c3ccccc23)o1`, the AC50 was inactive: > 30 µM.

On to `CCCCCCN=C(C)c1c(O)n(CCCC)c(=O)[nH]c1=O`, for which the AC50 is inactive: > 30 µM.

Regarding `O=C1CN=C(c2ccccc2)c2cc(Br)ccc2N1`, the AC50 is inactive: > 30 µM.

On to `O=C(NCCCn1ccnc1)C(Cl)(Cl)Cl`, for which the AC50 was inactive: > 30 µM.

Regarding `Cc1cccc(C)c1OC(=O)Cc1ccccc1`, the AC50 was inactive: > 30 µM.

Regarding `CC(=NCCCn1ccnc1)c1c(O)n(-c2ccccc2)c(=O)[nH]c1=O`, the AC50 is inactive: > 30 µM.

Regarding `COc1ccc(S(=O)(=O)NCc2ccc(C(=O)N3CCC4(CC3)OCCO4)cc2)cc1`, the AC50 is inactive: > 30 µM.

Turning to `C=CCNC(=O)c1c(N)n(Cc2ccco2)c2nc3ccccc3nc12`, the AC50 was inactive: > 30 µM.

`CCN(CC)CCCN=C(C)c1c(O)n(C2CCCCC2)c(=O)[nH]c1=O`: the AC50 was inactive: > 30 µM.

For `Cn1c(O)c(C=NCCc2c[nH]c3ccccc23)c(=O)n(C)c1=O`, the AC50 was inactive: > 30 µM.

Take `CCc1nnc(NC(=O)CCc2nc(C3=CCN(C)CC3)no2)s1`: the AC50 is inactive: > 30 µM.

Consider `CC(=NCCO)c1c(O)n(C2CCCCC2)c(=O)[nH]c1=O`, for which the AC50 is inactive: > 30 µM.

`CN(C)C(=O)Oc1cccc2c(OC(=O)N(C)C)cccc12`: the AC50 was inactive: > 30 µM.

Take `CCc1ccccc1NC(=O)CSc1nnc([C@@H](N)Cc2c[nH]c3ccccc23)o1`: the AC50 is inactive: > 30 µM.

In the case of `CCC(=NCCCN(CC)CC)c1c(O)n(C2CCCCC2)c(=O)[nH]c1=O`, the AC50 is inactive: > 30 µM.

With `O=c1[nH]c(=O)n(Cc2ccccc2)c(O)c1C=NCCCn1ccnc1`, the AC50 is inactive: > 30 µM.

Take `CCC(=NCCCn1ccnc1)c1c(O)n(-c2ccccc2)c(=O)[nH]c1=O`: the AC50 was inactive: > 30 µM.

For `CC(=NCCCn1ccnc1)c1c(O)n(C)c(=O)n(C)c1=O`, the AC50 is inactive: > 30 µM.

In the case of `CCN(C(=O)CN1CC=C(c2ccccc2)CC1)c1c(N)n(Cc2ccccc2)c(=O)[nH]c1=O`, the AC50 was inactive: > 30 µM.
